Record: PubChem BioAssay AID1159584 (Peter MacCallum Cancer Centre, 2016)
Test: 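Knock-downs that harm CDH1-null cells more than parental MCF10A cells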 (primary screen). Cells: human MCF10A breast epithelial cells, parental and CDH1-null. Knock-down reagent: siRNA against human genes. Measured: 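ATP luminescence (CellTiter-Glo) viability per line relative to mean mock wells over all plates, and the ratio of CDH1-null to parental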. Scale: CDH1-null / parental viability ratio: higher = CDH1-null cells survive relatively better than parental; CDH1-null viability vs mock: higher = more viable CDH1-null cells. Units: CDH1-null viability vs mock in fraction of mock.
The deposit covers about 18,000 reagents; shown is an unselected part. Not all columns of the deposit are shown. The record does not give: the amount of reagent, the time to read-out.

EPHA5 (GeneID 2044)
- CDH1-null / parental viability ratio: 0.92
- CDH1-null viability vs mock: 0.94

PEG3 (GeneID 5178)
- CDH1-null / parental viability ratio: 0.95
- CDH1-null viability vs mock: 0.52

CSTL1 (GeneID 128817)
- CDH1-null / parental viability ratio: 1.14
- CDH1-null viability vs mock: 1

HRNR (GeneID 388697)
- CDH1-null / parental viability ratio: 0.99
- CDH1-null viability vs mock: 0.7

MMP13 (GeneID 4322)
- CDH1-null / parental viability ratio: 1.06
- CDH1-null viability vs mock: 0.89

SLC35F3 (GeneID 148641)
- CDH1-null / parental viability ratio: 0.74
- CDH1-null viability vs mock: 0.64

OXER1 (GeneID 165140)
- CDH1-null / parental viability ratio: 0.99
- CDH1-null viability vs mock: 0.97

SEPHS2 (GeneID 22928)
- CDH1-null / parental viability ratio: 0.95
- CDH1-null viability vs mock: 1.08

CD300E (GeneID 342510)
- CDH1-null / parental viability ratio: 0.71
- CDH1-null viability vs mock: 0.49

NIF3L1 (GeneID 60491)
- CDH1-null / parental viability ratio: 0.78
- CDH1-null viability vs mock: 0.39

FAM20B (GeneID 9917)
- CDH1-null / parental viability ratio: 1.13
- CDH1-null viability vs mock: 0.62

PLXNA1 (GeneID 5361)
- CDH1-null / parental viability ratio: 1.05
- CDH1-null viability vs mock: 1.05

NUP107 (GeneID 57122)
- CDH1-null / parental viability ratio: 0.87
- CDH1-null viability vs mock: 0.48

TMEM167A (GeneID 153339)
- CDH1-null / parental viability ratio: 0.78
- CDH1-null viability vs mock: 0.46
